Results are given in words; binding and its absence hold for the method and conditions named. Binding seen in cells or lysates may run through a third protein. Some entries that bind do so weakly or less than the wild type.
Molecular target: T1, APOBEC2 (mouse (endogenous in C2C12)) (UniProt Q9WV35)
T1 sequence: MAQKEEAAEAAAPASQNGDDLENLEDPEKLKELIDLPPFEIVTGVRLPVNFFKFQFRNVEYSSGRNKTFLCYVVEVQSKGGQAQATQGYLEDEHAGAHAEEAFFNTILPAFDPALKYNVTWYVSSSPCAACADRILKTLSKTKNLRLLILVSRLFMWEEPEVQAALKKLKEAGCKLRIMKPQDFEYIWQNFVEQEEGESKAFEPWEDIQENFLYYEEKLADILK
Assay: co-IP

Chains of the proteins cited; added tags and fusions are not shown.
UniProt O09106: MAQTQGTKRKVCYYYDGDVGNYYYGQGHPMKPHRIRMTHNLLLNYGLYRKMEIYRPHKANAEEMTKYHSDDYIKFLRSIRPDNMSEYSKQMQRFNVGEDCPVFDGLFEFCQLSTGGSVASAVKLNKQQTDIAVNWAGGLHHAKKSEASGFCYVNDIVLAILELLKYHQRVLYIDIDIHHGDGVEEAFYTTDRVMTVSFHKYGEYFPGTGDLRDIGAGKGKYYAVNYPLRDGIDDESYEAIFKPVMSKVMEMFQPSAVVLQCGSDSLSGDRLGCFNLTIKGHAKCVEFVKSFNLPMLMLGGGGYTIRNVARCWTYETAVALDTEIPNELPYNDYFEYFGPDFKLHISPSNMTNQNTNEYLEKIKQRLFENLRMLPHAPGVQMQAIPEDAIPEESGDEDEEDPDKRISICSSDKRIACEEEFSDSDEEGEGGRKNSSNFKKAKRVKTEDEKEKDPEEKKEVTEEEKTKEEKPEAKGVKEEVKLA

- binding: binds
Substance: histone deacetylase 1 (HDAC1) (from UniProt O09106 1-482)

Reference: article doi:10.1101/2020.07.29.223594
